Measured values from patent publication US20240034757A1.
These are yes or no findings as the source states them, for the method shown.

Amino acid sequences for entries named in this document (tags omitted). A change or cut given only in a name is not applied to a line headed by its entry. Residues count along the entry.
UniProt Q92583, residues 24-94: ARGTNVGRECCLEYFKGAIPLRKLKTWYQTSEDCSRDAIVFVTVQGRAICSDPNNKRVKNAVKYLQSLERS
UniProt Q99731, residues 22-98: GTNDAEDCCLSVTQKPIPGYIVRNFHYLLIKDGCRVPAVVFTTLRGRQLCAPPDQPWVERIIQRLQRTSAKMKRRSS
UniProt P78556, residues 27-96: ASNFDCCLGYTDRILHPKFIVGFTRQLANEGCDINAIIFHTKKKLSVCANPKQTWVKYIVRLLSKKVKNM
UniProt O00585, residues 24-134: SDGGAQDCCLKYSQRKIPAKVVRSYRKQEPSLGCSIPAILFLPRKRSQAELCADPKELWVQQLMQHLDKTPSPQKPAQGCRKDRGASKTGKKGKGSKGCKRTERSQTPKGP
UniProt O00626, residues 25-93: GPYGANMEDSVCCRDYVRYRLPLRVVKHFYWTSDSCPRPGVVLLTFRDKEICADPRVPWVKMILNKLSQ
UniProt O00175, residues 27-104: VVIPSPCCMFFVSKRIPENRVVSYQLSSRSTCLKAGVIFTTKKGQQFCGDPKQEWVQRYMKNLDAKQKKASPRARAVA
UniProt Q9Y4X3, residues 25-112: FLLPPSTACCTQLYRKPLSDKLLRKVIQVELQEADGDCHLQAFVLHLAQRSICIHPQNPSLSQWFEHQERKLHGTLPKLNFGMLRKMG
UniProt Q9NRJ3, residues 23-127: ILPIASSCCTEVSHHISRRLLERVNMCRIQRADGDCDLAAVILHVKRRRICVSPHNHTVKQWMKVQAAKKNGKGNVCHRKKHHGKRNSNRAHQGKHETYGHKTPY
UniProt P78423, residues 25-100: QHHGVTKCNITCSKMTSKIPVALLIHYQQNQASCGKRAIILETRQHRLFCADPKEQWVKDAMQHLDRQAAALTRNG
UniProt P09341, residues 35-107: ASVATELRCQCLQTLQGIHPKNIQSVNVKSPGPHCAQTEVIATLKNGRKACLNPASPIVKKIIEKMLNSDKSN
UniProt P19875, residues 35-107: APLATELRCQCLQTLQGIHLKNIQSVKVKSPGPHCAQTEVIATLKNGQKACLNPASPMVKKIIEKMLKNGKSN
UniProt P19876, residues 35-107: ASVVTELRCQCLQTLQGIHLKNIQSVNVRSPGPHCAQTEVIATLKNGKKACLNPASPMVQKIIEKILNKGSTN
UniProt P02776, residues 32-101: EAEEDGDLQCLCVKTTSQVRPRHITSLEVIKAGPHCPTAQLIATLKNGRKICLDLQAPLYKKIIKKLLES
UniProt P42830, residues 41-114: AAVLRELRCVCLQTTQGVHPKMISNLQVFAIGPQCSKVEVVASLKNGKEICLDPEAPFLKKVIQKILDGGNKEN
UniProt P80162, residues 38-114: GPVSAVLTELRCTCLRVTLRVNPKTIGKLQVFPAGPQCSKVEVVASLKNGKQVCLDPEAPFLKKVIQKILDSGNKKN
UniProt P02775, residues 59-128: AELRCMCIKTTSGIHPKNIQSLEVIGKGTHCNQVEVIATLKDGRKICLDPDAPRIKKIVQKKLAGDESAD
UniProt P10145, residues 28-99: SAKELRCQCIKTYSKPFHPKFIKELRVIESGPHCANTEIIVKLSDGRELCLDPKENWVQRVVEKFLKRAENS
UniProt Q07325, residues 23-125: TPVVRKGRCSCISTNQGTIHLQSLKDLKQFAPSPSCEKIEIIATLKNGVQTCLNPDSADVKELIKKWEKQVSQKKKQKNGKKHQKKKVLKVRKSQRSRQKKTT
UniProt P02778, residues 22-98: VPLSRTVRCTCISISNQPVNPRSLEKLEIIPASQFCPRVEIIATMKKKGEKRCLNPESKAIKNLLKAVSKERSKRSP
UniProt O14625, residues 22-94: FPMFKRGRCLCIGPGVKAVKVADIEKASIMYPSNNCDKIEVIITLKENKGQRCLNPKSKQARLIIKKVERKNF
UniProt P48061, residues 22-89: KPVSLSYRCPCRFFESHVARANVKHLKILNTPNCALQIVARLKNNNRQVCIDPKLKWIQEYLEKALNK
UniProt O43927, residues 23-109: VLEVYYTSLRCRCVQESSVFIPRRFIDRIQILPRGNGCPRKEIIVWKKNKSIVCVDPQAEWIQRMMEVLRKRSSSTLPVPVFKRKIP
UniProt O95715, residues 35-111: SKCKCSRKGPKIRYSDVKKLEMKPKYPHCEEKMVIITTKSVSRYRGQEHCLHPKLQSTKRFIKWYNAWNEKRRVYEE
UniProt L7MC74: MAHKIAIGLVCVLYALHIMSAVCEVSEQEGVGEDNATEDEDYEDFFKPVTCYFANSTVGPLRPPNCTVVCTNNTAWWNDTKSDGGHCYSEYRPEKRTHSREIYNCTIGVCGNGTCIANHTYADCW

What was measured:
[1] = target: CCL17_HUMAN (human) (UniProt Q92583); experiment: BLI, empty cell the 12th table, row 27, column 8
[2] = target: CCL19_HUMAN (human) (UniProt Q99731); experiment: BLI, empty cell the 12th table, row 29, column 8
[3] = target: CCL20_HUMAN (human) (UniProt P78556); experiment: BLI, empty cell the 12th table, row 30, column 8
[4] = target: CCL21_HUMAN (human) (UniProt O00585); experiment: BLI, empty cell the 12th table, row 32, column 8
[5] = target: CCL22_HUMAN (human) (UniProt O00626); experiment: BLI, empty cell the 12th table, row 33, column 8
[6] = target: CCL24_HUMAN (human) (UniProt O00175); experiment: BLI, empty cell the 12th table, row 35, column 8
[7] = target: CCL27_HUMAN (human) (UniProt Q9Y4X3); experiment: BLI, empty cell the 12th table, row 38, column 8
[8] = target: CCL28_HUMAN (human) (UniProt Q9NRJ3); experiment: BLI, empty cell the 12th table, row 40, column 8
[9] = target: CX3CL1_HUMAN (human) (UniProt P78423); experiment: BLI, empty cell the 12th table, row 41, column 8
[10] = target: CXCL1_HUMAN (human) (UniProt P09341); experiment: BLI, empty cell the 12th table, row 42, column 8
[11] = target: CXCL2_HUMAN (human) (UniProt P19875); experiment: BLI, empty cell the 12th table, row 43, column 8
[12] = target: CXCL3_HUMAN (human) (UniProt P19876); experiment: BLI, empty cell the 12th table, row 44, column 8
[13] = target: CXCL4_HUMAN (human) (UniProt P02776); experiment: BLI, empty cell the 12th table, row 45, column 8
[14] = target: CXCL5_HUMAN (human) (UniProt P42830); experiment: BLI, empty cell the 12th table, row 46, column 8
[15] = target: CXCL6_HUMAN (human) (UniProt P80162); experiment: BLI, empty cell the 12th table, row 47, column 8
[16] = target: CXCL7_HUMAN (human) (UniProt P02775); experiment: BLI, empty cell the 12th table, row 48, column 8
[17] = target: CXCL8_HUMAN (human) (UniProt P10145); experiment: BLI, empty cell the 12th table, row 49, column 8
[18] = target: CXCL9_HUMAN (human) (UniProt Q07325); experiment: BLI, empty cell the 12th table, row 50, column 8
[19] = target: CXCL10_HUMAN (human) (UniProt P02778); experiment: BLI, empty cell the 12th table, row 51, column 8
[20] = target: CXCL11_HUMAN (human) (UniProt O14625); experiment: BLI, empty cell the 12th table, row 52, column 8
[21] = target: CXCL12_HUMAN (human) (UniProt P48061); experiment: BLI, empty cell the 12th table, row 53, column 8
[22] = target: CXCL13_HUMAN (human) (UniProt O43927); experiment: BLI, empty cell the 12th table, row 54, column 8
[23] = target: CXCL14_HUMAN (human) (UniProt O95715); experiment: BLI, empty cell the 12th table, row 55, column 8
[24] = target: T1, XCL1_HUMAN (human) (UniProt P47992); experiment: BLI, empty cell the 12th table, row 59, column 8
T1 sequence: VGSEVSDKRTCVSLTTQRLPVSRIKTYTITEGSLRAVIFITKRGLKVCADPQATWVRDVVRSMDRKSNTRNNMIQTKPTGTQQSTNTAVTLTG

Measured: binding

P672_RHIPU (from UniProt L7MC74 22-125)
no binding (tested: 300 nM): [1] | [2] | [3] | [4] | [5] | [6] | [7] | [8] | [9] | [10] | [11] | [12] | [13] | [14] | [15] | [16] | [17] | [18] | [19] | [20] | [21] | [22] | [23] | [24]
